The record followed here is PMC3158102.

Chains of the proteins cited; added tags and fusions are not shown. Residues count along the entry.
UniProt P25025: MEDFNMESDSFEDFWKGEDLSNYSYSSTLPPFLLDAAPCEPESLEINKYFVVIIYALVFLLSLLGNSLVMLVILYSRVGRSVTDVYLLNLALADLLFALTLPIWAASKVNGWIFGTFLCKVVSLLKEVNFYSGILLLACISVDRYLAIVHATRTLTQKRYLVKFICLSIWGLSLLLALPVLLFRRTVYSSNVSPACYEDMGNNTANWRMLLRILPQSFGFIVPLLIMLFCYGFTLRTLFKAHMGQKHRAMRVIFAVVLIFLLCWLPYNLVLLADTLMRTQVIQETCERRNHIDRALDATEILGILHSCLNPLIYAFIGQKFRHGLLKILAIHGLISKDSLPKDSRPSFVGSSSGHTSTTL
UniProt P46940: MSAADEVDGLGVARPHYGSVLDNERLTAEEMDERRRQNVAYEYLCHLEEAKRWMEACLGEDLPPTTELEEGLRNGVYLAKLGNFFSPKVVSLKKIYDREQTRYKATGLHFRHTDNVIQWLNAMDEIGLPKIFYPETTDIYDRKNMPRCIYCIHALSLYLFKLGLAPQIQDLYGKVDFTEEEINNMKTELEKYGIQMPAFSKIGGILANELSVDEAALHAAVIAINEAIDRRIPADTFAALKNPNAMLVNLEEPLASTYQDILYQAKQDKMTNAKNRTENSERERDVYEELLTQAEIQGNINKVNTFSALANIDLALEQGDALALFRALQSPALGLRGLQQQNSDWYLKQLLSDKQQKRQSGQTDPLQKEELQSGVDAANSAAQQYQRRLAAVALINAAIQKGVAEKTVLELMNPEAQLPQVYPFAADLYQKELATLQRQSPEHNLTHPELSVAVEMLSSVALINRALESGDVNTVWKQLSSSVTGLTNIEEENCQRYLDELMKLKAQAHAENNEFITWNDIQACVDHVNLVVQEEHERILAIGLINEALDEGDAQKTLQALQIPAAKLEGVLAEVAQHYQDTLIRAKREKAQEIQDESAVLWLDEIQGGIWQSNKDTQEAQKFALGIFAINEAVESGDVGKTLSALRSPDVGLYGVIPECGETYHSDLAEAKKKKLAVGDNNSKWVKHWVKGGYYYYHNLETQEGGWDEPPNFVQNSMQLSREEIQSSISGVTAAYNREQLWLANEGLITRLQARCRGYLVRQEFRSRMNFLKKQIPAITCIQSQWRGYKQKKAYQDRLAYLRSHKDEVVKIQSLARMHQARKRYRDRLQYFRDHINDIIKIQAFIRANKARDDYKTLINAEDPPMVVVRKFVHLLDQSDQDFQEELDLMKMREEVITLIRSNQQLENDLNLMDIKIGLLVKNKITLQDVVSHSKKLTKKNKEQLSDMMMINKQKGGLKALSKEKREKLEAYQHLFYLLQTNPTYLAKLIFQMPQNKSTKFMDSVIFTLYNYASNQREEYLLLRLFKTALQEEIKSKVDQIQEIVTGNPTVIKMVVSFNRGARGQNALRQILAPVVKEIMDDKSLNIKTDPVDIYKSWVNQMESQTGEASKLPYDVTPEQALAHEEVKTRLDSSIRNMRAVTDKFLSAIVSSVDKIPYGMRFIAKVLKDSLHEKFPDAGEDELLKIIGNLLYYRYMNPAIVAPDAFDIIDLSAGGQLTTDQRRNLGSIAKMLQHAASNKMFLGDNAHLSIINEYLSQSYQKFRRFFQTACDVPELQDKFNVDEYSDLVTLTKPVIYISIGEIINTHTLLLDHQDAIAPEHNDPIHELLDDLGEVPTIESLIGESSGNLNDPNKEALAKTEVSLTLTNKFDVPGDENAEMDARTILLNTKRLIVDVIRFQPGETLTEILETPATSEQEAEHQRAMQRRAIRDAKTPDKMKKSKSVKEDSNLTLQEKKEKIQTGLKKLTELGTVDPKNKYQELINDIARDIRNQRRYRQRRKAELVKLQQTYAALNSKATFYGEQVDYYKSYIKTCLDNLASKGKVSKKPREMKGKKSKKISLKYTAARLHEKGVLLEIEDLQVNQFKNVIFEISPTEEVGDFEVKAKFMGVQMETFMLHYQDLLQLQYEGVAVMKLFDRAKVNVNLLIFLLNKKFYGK
UniProt P50552: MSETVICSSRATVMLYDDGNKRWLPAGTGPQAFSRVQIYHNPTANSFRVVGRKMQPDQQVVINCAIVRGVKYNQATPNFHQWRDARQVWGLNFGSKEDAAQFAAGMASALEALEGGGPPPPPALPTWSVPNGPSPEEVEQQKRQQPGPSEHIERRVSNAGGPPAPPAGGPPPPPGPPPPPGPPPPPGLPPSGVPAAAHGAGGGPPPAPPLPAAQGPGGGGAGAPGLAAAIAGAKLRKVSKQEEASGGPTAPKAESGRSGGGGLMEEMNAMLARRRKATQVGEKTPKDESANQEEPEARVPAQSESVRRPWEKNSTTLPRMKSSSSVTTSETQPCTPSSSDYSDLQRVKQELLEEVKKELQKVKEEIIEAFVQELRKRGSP
UniProt P63104: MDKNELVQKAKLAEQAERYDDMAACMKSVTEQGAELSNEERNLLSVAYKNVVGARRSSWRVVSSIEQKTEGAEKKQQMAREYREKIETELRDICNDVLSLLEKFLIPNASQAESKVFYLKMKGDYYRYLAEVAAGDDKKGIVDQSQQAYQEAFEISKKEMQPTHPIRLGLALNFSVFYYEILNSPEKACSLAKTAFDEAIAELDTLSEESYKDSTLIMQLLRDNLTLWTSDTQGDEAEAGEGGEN
UniProt Q00610: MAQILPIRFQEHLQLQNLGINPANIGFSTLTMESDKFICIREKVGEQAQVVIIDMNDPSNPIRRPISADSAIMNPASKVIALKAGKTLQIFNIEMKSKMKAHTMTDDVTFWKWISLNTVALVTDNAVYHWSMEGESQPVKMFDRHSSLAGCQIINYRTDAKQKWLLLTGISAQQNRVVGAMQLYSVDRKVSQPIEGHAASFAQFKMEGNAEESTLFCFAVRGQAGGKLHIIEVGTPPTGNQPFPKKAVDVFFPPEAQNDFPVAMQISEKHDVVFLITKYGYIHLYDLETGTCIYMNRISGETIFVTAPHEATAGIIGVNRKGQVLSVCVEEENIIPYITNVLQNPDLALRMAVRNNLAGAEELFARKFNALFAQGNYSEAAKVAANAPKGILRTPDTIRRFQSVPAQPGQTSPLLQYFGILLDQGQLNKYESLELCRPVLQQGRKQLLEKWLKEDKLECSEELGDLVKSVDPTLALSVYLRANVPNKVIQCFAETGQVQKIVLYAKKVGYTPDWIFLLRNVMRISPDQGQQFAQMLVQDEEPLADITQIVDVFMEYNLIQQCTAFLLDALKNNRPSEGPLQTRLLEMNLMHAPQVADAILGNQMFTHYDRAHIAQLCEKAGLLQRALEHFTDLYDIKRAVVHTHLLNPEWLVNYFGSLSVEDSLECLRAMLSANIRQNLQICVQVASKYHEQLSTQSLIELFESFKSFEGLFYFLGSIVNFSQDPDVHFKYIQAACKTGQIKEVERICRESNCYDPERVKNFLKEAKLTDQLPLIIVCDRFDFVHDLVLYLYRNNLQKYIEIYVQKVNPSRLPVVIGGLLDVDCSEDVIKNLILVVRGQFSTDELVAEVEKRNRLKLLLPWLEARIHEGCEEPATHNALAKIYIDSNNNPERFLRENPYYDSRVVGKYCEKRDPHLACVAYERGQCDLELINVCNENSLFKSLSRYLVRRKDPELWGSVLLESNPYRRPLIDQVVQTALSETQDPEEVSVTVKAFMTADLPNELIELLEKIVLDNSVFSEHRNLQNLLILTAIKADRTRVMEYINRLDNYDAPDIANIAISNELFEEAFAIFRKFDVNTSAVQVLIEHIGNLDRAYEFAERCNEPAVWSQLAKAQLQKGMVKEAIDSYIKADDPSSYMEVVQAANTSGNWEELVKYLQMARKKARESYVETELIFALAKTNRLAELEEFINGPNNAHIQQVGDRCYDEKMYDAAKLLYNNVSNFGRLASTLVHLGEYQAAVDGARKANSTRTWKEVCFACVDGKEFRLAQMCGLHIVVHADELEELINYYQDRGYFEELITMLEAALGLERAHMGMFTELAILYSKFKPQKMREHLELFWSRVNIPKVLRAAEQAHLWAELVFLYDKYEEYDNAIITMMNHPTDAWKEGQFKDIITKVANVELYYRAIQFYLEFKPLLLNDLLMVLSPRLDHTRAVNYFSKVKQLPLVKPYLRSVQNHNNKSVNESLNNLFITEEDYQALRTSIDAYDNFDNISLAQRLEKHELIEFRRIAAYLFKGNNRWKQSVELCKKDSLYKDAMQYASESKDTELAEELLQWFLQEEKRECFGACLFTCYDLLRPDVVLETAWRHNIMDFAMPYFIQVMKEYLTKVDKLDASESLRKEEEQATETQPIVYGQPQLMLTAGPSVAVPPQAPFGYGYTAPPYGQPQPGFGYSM
UniProt P06396, residues 28-782: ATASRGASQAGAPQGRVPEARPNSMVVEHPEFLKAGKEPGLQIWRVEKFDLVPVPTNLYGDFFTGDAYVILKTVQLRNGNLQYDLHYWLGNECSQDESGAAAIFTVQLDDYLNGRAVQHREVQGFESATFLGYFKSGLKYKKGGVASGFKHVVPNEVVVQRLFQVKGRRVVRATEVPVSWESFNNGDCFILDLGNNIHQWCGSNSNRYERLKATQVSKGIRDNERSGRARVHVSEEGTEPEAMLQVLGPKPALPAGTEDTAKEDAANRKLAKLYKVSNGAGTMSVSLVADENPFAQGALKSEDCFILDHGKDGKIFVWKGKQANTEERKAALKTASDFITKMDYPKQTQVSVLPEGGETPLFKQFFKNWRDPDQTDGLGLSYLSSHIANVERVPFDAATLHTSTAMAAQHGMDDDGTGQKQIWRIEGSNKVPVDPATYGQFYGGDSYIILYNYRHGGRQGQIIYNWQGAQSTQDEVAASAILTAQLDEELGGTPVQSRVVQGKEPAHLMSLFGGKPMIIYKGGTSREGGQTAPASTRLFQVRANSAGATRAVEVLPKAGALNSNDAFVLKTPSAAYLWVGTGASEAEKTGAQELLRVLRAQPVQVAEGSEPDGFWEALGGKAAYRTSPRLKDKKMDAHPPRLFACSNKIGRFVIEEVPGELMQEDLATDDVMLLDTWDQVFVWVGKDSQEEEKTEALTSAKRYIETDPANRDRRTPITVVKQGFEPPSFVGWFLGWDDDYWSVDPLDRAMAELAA
UniProt P25787: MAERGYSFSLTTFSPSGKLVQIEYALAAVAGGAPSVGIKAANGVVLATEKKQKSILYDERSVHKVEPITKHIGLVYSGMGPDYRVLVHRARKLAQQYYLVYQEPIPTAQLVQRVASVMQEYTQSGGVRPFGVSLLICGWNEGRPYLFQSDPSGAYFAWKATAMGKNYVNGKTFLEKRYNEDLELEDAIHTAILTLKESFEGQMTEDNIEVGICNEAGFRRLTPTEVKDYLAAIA
UniProt Q9H0B6: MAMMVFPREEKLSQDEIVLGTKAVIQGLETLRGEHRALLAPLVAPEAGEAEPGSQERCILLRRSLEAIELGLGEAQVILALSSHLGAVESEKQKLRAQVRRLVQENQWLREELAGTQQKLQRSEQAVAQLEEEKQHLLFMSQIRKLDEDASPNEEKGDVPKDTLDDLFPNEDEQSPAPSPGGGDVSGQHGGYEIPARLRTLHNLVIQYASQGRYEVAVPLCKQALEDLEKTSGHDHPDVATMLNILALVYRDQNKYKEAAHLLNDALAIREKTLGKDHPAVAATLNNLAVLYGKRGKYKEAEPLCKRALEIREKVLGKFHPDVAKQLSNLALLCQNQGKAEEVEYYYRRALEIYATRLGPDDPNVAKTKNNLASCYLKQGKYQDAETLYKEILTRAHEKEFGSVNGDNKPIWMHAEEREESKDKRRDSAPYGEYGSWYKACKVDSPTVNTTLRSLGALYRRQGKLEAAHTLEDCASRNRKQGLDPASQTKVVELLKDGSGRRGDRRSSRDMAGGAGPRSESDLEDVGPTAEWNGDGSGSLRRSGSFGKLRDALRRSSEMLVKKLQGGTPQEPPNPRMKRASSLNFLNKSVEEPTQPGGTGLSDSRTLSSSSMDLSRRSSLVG

These are yes or no findings as the source states them, for the method shown. Binding seen in cells or lysates may run through a third protein. Here binding means that the protein was enriched with, or labelled near, the bait; the list need not be complete.

The target in the assay is CXCR2 stably over-expressed in differentiated HL-60 cells (UniProt P25025). The experiment in a line: affinity purification with mass spectrometry; anti-CXCR2 rabbit antibody coupled to Sepharose; lysates of differentiated HL-60 cells stably expressing CXCR2, vehicle or 100 ng/ml CXCL8 for 1 min; lysis buffer 50 mM Tris-HCl pH 7.5, 0.05% Triton X-100, 300 mM NaCl; normal rabbit IgG beads as mock, its identifications subtracted; LC/MS/MS.
Turning to “IQ motif containing GTPase activating protein 1 (IQGAP1), endogenous in differentiated HL-60 cells (from UniProt P46940 1-1657)”, the binding result is listed as “binds”. For “Vasodilator-stimulated phosphoprotein (VASP) (from UniProt P50552 1-380)”, the binding entry is “binds”.

As to “YWHAZ (14-3-3 zeta) (from UniProt P63104 1-245)”, the binding entry is “binds”.

Turning to “Clathrin heavy chain 1 (from UniProt Q00610 1-1675)”, the binding result is listed as “binds”. With Talin 1 (from UniProt Q9Y490 1-2541), the binding entry is given as “binds”. Consider Gelsolin (from UniProt P06396 28-782), for which the binding result is given as “binds”.

For the substance “PSMA2 (proteosome subunit) (from UniProt P25787 1-234)”, the binding entry is given as “binds”.

For “Dynein heavy chain 5 (from UniProt Q8TE73 1-4624)”, the binding entry is recorded as “binds”. With “Valosin-containing protein (VCP) (from UniProt P55072 1-806)”, the binding entry is “binds”. With “Kinesin light chain-2 (from UniProt Q9H0B6 1-622)” the entry was “binds”.
